Measured values from publication PMC5534431.
These are yes or no findings as the source states them, for the method shown. In cells and extracts the contact can be indirect. Some results given as binding are weak or reduced against the parent protein; the word gives no strength. Sequences can lack the tags named with a protein.

Protein sequences, listed by entry. Tags and fused reporters are not part of them.
UniProt O15379: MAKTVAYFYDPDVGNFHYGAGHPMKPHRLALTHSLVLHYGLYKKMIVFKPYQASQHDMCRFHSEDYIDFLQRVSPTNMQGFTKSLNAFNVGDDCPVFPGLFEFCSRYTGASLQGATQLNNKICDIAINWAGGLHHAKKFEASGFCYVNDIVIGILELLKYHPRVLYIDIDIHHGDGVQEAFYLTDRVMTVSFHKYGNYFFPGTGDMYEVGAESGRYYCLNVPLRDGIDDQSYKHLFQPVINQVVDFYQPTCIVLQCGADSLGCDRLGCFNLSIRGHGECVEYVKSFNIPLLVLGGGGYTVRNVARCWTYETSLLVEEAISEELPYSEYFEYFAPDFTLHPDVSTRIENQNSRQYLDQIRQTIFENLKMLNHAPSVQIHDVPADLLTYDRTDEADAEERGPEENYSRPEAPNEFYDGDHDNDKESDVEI

Molecular target: Flag-HDAC3 (histone deacetylase 3) (UniProt O15379)
Experiment: co-IP; HEK293T cells transfected with Flag-HDACs and HA-RORα; lysis buffer 200 mM NaCl, 50 mM Tris-HCl pH 8.0, 0.5% NP40; anti-Flag antibody overnight, protein A/G agarose beads; washed with 150 mM NaCl, 50 mM Tris-HCl pH 8.0, 0.5% NP40; immunoblot

B1: HA-RORα (retinoic acid receptor-related orphan receptor-α) (protein, UniProt P35398 1-523)
chain: MESAPAAPDPAASEPGSSGADAAAGSRETPLNQESARKSEPPAPVRRQSYSSTSRGISVTKKTHTSQIEIIPCKICGDKSSGIHYGVITCEGCKGFFRRSQQSNATYSCPRQKNCLIDRTSRNRCQHCRLQKCLAVGMSRDAVKFGRMSKKQRDSLYAEVQKHRMQQQQRDHQQQPGEAEPLTPTYNISANGLTELHDDLSNYIDGHTPEGSKADSAVSSFYLDIQPSPDQSGLDINGIKPEPICDYTPASGFFPYCSFTNGETSPTVSMAELEHLAQNISKSHLETCQYLREELQQITWQTFLQEEIENYQNKQREVMWQLCAIKITEAIQYVVEFAKRIDGFMELCQNDQIVLLKAGSLEVVFIRMCRAFDSQNNTVYFDGKYASPDVFKSLGCEDFISFVFEFGKSLCSMHLTEDEIALFSAFVLMSADRSWLQEKVKIEKLQQKIQLALQHVLQKNHREDGILTKLICKVSTLRALCGRHTEKLMAFKAIYPDIVRLHFPPLYKELFTSEFEPAMQIDG
For B1, the binding was “binds”.
